Test [1] addresses T1, human α9 integrin (human, UniProt Q13797 30-1035).
T1 sequence: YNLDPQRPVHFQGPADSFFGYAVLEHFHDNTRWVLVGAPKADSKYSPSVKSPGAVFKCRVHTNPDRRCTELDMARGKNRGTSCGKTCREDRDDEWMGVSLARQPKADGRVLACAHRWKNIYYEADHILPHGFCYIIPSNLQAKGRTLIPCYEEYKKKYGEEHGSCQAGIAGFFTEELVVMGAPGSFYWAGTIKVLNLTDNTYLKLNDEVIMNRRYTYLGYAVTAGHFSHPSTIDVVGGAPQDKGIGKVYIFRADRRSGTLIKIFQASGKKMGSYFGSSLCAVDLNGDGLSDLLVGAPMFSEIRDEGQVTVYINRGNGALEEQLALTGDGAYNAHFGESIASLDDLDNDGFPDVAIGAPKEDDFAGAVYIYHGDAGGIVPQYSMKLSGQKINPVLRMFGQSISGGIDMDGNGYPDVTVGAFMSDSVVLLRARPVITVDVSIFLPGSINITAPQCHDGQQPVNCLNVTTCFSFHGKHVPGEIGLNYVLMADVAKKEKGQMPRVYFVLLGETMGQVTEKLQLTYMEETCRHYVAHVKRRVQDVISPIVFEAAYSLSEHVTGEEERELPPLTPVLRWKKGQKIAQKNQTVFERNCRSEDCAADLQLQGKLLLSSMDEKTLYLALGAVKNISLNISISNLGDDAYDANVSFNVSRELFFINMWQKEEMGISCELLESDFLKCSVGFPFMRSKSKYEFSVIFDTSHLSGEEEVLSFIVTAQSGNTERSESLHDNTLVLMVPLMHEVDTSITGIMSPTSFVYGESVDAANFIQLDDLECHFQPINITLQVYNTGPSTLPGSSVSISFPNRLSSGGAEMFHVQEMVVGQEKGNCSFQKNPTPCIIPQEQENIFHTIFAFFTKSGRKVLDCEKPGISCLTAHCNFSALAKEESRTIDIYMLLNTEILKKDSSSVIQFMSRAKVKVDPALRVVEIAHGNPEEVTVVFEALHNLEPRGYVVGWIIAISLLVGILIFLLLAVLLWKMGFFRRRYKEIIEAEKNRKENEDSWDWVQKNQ
The experiment in a line: cell ELISA on CHO/huα9 cells, transiently expressed antibody. (In general: In an ELISA, binding on a coated surface is turned into a signal by an enzyme label.)

Test [2] deals with T1, human α9 integrin. The test is described as follows: hybridoma screening on cells.

Binding data for three molecules are collected here from patent publication US20110300139A1 (GENE TECHNO SCIENCE, published 2011).

These are yes or no findings as the source states them, for the method shown. Some binding calls cover weakened binding; strength is not graded here.

B1: humanized K33N IgG1/κ antibody (antibody, V domains shown)
VH: QVQLVQSGAEVKKPGASVKVSCKASGYSFTSYYMNWVRQAPGQRLEWIGWIFPGSGNTKYNEKFKGKATLTADTSASTAYMELSSLRSEDTAVYYCARSWVSYERGYYFDYWGQGTLVTVSS
VL: DIQMTQSPSSLSASVGDRVTITCRASENIYYSLAWYQQKPGKAPKLLIYNANSLEDGVPSRFSGSGSGTQYTLTISSLQPEDFATYYCKQAYDVPYTFGQGTKVEIKR
notes: also called HuK33N
For B1, the binding result in the test with human α9 integrin [1] was “binds”.

B2: mouse K33N monoclonal antibody (hybridoma FERM BP-10830) (antibody, mouse IgG1, V domains shown)
VH: QVQLQQSGPELVKPGASVKISCKASGYSFTSYYMNWVKKRPGQGLEWIGWIFPGSGNTKYNEKFKGKATLTADTSSSTAYMQVSSLTSEDSAVYFCARSWVSYERGYYFDYWGQGTSLTVSS
VL: DIQMTQSPASLAASVGETVTLTCRASENIYYSLAWYQQKQGKSPQLLIYNANSLEDGVPSRFSGSGSGTQYSMKINSMQPEDTATYFCKQAYDVPYTFGGGTKLEIK
notes: also called mouse K33N antibody
For B2, the binding entry in the test with human α9 integrin [2] was “binds”.

B3: chimeric K33N IgG1/κ antibody (antibody, V domains shown)
VH: QVQLQQSGPELVKPGASVKISCKASGYSFTSYYMNWVKKRPGQGLEWIGWIFPGSGNTKYNEKFKGKATLTADTSSSTAYMQVSSLTSEDSAVYFCARSWVSYERGYYFDYWGQGTSLTVSS
VL: DIQMTQSPASLAASVGETVTLTCRASENIYYSLAWYQQKQGKSPQLLIYNANSLEDGVPSRFSGSGSGTQYSMKINSMQPEDTATYFCKQAYDVPYTFGGGTKLEIK
notes: Mouse K33N variable regions on human gamma-1 and kappa constant regions (vector pChK33N); also called ChK33N
As for B3, the binding result with human α9 integrin [1] is given as “binds”.
